Here are results for one molecule from paper PMC1802081.

The chains behind the UniProt entries cited, without tags or fusion partners. Residues count along the entry.
UniProt P36894, residues 24-152: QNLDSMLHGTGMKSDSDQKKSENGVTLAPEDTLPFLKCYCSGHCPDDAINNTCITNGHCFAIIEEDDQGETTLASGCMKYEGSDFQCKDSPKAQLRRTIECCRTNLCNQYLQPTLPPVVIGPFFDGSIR

No constants are given. Whether binding was seen depends on the method and setting.

In this assay the target is BMPR-IAECD (BMP type IA receptor ectodomain) (UniProt P36894). In words: crystal structure; ternary complex (1:2:2) of BMP-2 L100K/N102D, BMPR-IAECD and ActR-IIBECD; crystals from 30% PEG3350, 0.1 M Tris-HCl pH 8.8, 0.2 M ammonium acetate, 21°C; both purified.

B1: ActR-IIBECD wildtype (activin type IIB receptor ectodomain) (receptor, UniProt P27040 19-137)
chain: SGRGEAETRECIYYNANWELERTNQSGLERCEGEQDKRLHCYASWRNSSGTIELVKKGCWLDDFNCYDRQECVATEENPQVYFCCCEGNFCNERFTHLPEPGGPEVTYEPPPTAPTLLT
Consider B1, for which the binding entry was “no binding”.
